# No constants are given. Whether binding was seen depends on the method and setting. Binding seen in cells or lysates may run through a third protein. Some binding calls cover weakened binding; strength is not graded here. Tags and fused reporters may be left off the sequences shown.
# By UniProt entry, the sequences of proteins in these tests, tags left out.
# UniProt Q9R1A8: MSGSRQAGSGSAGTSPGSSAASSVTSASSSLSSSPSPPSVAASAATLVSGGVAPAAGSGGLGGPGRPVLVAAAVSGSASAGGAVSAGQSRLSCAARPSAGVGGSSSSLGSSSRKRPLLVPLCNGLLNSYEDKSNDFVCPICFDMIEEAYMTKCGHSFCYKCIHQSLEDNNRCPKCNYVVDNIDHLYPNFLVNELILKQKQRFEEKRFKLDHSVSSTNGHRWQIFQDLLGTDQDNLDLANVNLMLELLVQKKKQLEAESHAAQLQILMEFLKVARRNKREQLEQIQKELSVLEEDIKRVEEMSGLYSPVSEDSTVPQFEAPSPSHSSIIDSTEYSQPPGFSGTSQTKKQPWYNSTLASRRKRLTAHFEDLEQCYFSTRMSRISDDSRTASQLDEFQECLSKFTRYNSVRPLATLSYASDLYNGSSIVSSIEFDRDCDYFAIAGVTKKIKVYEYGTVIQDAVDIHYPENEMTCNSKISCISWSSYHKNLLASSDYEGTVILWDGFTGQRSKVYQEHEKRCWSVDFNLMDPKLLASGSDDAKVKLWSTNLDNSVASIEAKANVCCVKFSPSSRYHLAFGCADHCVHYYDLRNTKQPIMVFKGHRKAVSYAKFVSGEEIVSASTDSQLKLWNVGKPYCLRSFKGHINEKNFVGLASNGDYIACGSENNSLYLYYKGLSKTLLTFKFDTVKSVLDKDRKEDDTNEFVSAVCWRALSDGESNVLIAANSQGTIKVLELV
# What was measured:
# [1] = target: T1, HA-Rhbdf2 (rhomboid 5 homolog 2), expressed in 293T cells (UniProt Q80WQ6); assay: co-IP; HEK293T cells co-transfected with HA-Rhbdf2 and Flag-Cop1 for 1 day; lysate incubated with protein A/G agarose beads and the corresponding antibody at 4°C for 12 hours; Western blot
# T1 sequence: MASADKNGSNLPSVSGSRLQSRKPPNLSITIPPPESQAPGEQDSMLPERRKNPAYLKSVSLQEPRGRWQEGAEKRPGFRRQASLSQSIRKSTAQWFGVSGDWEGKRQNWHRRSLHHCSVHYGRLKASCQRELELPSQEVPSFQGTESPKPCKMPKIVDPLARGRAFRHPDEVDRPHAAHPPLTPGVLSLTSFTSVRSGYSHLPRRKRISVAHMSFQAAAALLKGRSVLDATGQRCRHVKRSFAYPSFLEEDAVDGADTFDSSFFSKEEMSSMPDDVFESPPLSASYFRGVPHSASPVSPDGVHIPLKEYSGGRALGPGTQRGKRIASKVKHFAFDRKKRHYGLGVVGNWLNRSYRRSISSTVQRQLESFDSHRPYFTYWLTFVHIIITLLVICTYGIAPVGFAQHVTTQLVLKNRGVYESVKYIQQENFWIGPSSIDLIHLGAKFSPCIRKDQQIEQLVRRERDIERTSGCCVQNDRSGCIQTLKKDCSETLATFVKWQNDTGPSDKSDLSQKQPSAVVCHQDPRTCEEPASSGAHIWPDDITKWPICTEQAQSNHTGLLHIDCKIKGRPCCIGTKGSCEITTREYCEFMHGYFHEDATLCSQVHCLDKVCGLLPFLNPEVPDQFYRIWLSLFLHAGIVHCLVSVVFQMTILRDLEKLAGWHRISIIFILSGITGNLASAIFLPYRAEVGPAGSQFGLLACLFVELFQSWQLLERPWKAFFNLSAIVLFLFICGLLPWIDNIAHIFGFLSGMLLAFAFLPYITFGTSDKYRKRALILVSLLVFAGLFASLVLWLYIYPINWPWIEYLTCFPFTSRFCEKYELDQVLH
# [2] = target: T2, HA-Rhbdf2 (rhomboid 5 homolog 2), expressed in AML12 cells (UniProt Q80WQ6); assay: co-IP; AML12 cells co-transfected with HA-Rhbdf2 and Flag-Cop1 for 1 day; lysate incubated with protein A/G agarose beads and the corresponding antibody at 4°C for 12 hours; Western blot
# T2 sequence: T1 sequence
binding [1],binding [2],Substance
binds,,"Flag-Cop1 (constitutive photomorphogenic 1), expressed in 293T cells (from UniProt Q9R1A8 1-733) (enzyme)"
,binds,"Flag-Cop1 (constitutive photomorphogenic 1), expressed in AML12 cells (from UniProt Q9R1A8 1-733) (enzyme)"

# Reference: PMC12873737
